Results are given in words; binding and its absence hold for the method and conditions named. Binding can be weak; no strength is given.
Target: T1, NRF2 (human (endogenous in DU-145)) (UniProt Q16236)
T1 sequence: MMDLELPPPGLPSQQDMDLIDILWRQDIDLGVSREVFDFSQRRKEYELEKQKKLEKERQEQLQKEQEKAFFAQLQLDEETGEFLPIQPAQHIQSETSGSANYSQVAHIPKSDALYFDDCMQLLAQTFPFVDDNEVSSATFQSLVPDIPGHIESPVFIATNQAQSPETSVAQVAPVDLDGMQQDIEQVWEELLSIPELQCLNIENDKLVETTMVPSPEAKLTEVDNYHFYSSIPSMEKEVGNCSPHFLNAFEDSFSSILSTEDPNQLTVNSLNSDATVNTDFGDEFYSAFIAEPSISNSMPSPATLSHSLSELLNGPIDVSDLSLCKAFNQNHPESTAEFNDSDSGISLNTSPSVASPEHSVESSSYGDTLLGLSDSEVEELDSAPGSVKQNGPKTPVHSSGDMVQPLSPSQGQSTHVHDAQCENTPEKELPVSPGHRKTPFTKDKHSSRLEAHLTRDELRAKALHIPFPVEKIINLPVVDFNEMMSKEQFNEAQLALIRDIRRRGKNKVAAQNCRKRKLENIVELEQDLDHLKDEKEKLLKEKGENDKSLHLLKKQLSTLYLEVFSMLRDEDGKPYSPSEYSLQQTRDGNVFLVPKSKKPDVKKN
Assay: re-ChIP (sequential chromatin immunoprecipitation); formaldehyde cross-linked soluble chromatin precipitated with a first antibody (anti-MUC1-C or anti-NRF2), then reprecipitated with a second antibody or control IgG; read out by qPCR of promoter or intron regions (PBRM1, ARID2, BRD7, SLC7A11, G6PD); DU-145 and LNCaP-AI cells

MUC1-C was tested, and the binding was “binds”.

Reference: article PMC8321896
